# From the supplement of paper PMC10849652
# Amino acid sequences for entries named in this document (tags omitted). A change or cut given only in a name is not applied to a line headed by its entry.
# UniProt Q9H0A0: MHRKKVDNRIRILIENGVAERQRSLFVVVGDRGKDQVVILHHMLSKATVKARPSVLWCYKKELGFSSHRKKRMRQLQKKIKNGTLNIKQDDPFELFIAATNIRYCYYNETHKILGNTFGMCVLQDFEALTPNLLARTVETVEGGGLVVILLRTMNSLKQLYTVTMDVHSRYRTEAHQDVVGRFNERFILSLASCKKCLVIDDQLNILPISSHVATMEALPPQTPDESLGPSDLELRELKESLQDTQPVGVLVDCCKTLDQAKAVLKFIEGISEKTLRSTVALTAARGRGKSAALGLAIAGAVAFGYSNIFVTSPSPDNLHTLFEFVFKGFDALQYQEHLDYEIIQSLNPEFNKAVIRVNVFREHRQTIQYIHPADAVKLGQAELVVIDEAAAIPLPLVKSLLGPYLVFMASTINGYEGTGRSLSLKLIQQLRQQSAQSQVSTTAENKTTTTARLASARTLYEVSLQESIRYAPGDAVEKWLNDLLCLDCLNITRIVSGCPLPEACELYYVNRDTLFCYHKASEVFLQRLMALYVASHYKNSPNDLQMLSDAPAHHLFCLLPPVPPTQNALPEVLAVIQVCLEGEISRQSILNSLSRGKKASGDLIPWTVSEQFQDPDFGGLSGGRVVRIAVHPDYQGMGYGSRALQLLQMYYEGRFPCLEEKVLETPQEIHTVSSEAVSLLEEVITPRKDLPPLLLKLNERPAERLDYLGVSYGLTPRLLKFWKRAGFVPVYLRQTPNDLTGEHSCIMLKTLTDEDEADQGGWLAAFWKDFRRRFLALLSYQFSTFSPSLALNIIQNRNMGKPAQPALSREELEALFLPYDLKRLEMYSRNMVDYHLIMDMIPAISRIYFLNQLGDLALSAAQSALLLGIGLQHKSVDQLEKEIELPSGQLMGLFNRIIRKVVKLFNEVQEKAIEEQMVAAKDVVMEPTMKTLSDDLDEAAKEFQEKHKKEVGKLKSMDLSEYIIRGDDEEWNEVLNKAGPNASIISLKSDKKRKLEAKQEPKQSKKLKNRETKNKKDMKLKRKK
# UniProt Q9BXJ9: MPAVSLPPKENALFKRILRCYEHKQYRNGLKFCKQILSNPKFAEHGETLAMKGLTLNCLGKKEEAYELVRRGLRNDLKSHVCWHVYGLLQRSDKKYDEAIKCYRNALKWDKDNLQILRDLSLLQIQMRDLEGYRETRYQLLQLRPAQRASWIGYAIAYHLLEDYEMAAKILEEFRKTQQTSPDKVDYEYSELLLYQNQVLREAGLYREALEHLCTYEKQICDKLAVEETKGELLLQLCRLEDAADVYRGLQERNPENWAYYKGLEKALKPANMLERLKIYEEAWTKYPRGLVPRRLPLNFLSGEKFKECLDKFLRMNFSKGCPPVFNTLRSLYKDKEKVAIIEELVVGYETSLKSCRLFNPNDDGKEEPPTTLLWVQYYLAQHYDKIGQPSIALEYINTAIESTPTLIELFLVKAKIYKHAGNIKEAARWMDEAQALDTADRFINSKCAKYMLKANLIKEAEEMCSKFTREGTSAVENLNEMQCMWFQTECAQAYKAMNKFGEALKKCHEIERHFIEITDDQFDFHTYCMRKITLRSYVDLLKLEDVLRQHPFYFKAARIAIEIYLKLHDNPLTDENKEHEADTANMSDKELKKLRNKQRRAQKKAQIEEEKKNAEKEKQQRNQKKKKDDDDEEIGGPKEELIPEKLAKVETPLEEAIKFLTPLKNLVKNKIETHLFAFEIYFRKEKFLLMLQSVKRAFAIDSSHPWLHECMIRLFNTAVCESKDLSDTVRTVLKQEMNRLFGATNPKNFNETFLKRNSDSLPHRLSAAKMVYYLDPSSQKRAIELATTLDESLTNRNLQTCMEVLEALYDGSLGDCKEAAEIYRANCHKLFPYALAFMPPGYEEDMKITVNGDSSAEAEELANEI
# UniProt P55209: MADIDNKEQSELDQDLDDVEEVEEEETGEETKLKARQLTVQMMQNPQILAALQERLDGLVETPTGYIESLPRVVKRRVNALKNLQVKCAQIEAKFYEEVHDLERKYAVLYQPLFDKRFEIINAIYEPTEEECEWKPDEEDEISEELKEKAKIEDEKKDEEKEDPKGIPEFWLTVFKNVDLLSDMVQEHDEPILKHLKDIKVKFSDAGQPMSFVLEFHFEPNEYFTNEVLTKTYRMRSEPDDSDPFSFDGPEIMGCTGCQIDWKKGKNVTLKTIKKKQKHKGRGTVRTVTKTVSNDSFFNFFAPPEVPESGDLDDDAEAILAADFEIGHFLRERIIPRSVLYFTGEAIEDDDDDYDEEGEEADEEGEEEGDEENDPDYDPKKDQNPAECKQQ
# UniProt O75113: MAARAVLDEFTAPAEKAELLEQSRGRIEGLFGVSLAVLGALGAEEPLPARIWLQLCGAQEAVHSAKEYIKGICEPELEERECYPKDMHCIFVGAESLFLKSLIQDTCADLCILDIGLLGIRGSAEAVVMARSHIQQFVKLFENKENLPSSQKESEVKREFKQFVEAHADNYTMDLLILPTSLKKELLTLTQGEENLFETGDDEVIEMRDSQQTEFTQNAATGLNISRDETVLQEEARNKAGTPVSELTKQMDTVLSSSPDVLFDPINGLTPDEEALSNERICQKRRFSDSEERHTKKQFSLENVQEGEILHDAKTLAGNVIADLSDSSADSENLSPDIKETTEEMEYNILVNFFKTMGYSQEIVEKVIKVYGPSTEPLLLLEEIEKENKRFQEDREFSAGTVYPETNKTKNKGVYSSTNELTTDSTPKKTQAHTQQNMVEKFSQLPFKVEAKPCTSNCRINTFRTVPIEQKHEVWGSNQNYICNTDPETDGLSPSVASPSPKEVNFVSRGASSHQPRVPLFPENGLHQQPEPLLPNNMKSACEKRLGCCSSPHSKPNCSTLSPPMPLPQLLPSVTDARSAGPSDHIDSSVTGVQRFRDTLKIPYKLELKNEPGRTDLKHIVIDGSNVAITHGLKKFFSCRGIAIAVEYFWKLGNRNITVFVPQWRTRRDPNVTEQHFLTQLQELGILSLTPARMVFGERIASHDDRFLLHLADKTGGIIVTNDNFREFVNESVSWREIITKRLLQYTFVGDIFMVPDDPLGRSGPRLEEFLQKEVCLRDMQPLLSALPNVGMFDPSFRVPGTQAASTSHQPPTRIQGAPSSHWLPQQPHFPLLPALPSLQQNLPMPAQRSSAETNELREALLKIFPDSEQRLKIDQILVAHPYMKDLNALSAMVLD
# UniProt Q9BRA0: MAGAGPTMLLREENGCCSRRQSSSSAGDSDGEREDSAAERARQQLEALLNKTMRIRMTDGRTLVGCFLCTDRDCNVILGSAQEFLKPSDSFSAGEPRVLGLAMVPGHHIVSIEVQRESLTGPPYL
# UniProt Q13772: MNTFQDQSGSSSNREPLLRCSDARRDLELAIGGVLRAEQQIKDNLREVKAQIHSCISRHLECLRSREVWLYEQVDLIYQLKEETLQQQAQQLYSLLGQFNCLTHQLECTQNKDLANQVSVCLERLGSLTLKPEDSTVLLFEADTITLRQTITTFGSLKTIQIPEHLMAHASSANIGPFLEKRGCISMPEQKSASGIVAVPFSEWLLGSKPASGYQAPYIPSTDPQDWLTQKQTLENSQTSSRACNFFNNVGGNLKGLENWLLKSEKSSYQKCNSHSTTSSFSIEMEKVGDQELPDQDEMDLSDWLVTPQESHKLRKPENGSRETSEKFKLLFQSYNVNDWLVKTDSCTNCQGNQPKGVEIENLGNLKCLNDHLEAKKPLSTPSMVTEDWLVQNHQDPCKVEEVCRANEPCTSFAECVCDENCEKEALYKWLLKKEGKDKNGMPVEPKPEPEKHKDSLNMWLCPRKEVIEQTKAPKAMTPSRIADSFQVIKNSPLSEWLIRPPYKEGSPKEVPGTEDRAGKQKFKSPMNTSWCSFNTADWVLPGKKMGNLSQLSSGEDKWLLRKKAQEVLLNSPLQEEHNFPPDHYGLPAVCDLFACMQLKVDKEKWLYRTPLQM
# UniProt Q969V5: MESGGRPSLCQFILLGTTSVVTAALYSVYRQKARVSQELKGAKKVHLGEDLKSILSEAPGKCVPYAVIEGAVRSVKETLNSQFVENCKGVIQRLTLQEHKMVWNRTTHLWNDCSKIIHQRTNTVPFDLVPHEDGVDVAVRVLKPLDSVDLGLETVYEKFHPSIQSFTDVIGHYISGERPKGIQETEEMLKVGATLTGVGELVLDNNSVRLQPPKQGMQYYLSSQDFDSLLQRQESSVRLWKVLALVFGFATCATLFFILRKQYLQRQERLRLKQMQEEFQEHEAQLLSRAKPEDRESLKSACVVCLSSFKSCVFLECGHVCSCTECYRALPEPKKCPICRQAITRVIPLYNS
# UniProt Q7Z406, whole entry, looked up: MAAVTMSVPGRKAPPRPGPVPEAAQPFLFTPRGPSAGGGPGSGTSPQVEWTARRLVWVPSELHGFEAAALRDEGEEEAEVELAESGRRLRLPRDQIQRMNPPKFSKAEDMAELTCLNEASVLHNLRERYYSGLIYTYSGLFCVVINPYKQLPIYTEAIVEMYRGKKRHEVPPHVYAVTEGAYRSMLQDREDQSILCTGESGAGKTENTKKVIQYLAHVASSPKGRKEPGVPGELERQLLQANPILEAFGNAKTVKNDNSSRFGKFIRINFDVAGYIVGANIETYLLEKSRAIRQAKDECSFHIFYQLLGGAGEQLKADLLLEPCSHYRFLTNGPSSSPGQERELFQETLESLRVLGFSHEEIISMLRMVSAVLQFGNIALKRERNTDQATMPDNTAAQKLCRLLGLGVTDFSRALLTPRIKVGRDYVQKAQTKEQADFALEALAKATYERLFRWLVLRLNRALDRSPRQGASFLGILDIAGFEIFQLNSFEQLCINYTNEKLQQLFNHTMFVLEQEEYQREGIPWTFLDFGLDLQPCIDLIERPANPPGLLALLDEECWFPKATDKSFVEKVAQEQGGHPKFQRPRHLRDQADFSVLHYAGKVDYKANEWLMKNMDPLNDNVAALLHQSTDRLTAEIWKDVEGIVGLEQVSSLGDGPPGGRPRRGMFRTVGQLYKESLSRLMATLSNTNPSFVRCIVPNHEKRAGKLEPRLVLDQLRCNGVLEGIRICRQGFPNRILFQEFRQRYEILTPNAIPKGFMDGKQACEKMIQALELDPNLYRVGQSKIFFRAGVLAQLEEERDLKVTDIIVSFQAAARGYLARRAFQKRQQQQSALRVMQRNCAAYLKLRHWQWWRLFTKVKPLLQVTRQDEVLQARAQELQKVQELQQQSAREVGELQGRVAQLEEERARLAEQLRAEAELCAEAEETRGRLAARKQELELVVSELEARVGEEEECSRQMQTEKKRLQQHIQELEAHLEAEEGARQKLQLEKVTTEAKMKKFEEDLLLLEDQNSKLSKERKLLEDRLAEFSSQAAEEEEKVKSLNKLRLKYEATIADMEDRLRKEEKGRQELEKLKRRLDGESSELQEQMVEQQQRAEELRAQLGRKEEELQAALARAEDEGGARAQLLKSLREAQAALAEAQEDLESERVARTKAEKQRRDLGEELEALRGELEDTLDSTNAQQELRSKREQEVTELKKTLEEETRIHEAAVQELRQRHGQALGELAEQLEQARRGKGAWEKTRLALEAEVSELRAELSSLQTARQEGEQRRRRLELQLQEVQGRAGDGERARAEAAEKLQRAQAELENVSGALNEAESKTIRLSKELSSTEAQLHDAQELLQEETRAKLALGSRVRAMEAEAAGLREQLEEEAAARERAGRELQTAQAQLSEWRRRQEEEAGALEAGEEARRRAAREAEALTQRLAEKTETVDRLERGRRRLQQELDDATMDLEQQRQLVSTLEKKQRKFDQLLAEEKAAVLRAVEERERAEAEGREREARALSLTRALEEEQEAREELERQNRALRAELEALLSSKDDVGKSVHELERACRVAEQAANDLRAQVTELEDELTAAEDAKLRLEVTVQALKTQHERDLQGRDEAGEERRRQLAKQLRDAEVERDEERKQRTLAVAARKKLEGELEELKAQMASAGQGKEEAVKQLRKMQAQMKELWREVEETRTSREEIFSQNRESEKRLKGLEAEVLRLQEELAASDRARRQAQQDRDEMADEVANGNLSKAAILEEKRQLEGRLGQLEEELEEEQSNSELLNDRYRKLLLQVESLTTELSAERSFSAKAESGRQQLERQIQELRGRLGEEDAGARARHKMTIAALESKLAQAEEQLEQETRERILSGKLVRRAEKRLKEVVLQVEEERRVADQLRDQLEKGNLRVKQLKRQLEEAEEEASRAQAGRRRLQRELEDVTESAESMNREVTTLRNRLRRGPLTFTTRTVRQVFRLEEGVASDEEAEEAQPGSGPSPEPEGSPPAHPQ
# UniProt Q9BQ15: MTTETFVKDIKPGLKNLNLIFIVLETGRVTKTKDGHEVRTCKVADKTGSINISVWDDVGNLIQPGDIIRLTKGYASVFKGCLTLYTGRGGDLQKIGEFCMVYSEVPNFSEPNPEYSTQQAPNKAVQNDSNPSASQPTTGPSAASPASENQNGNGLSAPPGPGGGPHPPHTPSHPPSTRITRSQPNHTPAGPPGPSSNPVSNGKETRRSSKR
# This is one part of the list.
# Legend:
# Experiment in all cases: log2 fold change, soluble protein after heating vs DMSO (PISA); higher = thermal stabilisation; K562 lysate, 10 uM; active = over 0.2 and 3.5 SD of the protein, either way, in both replicates (recomputed)
# alvocidib = compound: CN1CC[C@H](c2c(O)cc(O)c3c(=O)cc(-c4ccccc4Cl)oc23)[C@H](O)C1 [alvocidib]
# Method in brief: (§1)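 Dounce homogenisation of K562 pellets in PBS pH 7.4 with 1 mM MgCl2 produced a crude extract, used at 1 mg/mL protein. Exposure to 10 μM compound lasted 30 min, and aliquots were then heated for 3 min across 48°C-58°C, pooled and brought to 0.5% NP-40 at 4°C. The supernatant after 21,000xg for 90 min was quantified by TMTpro 16plex LC-MS/MS with channel sums equalised. Duplicate values are given as log-two fold change in thermal stability relative to solvent controls.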
# Tubastatin A = compound: CN1CCc2c(c3ccccc3n2Cc2ccc(C(=O)NO)cc2)C1 [Tubastatin A]
# Method in brief: as §1
# [1] = compound: CNC(=O)C1=CC=CC=C1NC2=NC(=NC=C2Cl)NC3=C(C=C(C=C3)N4CCOCC4)OC
# Method in brief: as §1
# defactinib = compound: CNC(=O)c1ccc(Nc2ncc(C(F)(F)F)c(NCc3nccnc3N(C)S(C)(=O)=O)n2)cc1 [defactinib]
# Method in brief: as §1
# [2] = compound: CNc1nc(-c2ccc3c(N)n[nH]c3c2)cc(N2C[C@@H](C(=O)NC3CCCCC3)CC[C@H]2C)n1
# Method in brief: as §1
# encorafenib = compound: COC(=O)N[C@@H](C)CNc1nccc(-c2cn(C(C)C)nc2-c2cc(Cl)cc(NS(C)(=O)=O)c2F)n1 [encorafenib]
# Method in brief: as §1
# [3] = compound: COC(=O)[C@H](CCSC)NC(=O)C1=C(C=C(C=C1)NC[C@H](CS)N)C2=CC=CC=C2
# Method in brief: as §1
# alisertib = compound: COc1cc(Nc2ncc3c(n2)-c2ccc(Cl)cc2C(c2c(F)cccc2OC)=NC3)ccc1C(=O)O [alisertib]
# Method in brief: as §1
# [4] = compound: COc1cc2nc(-c3cc(F)ccc3O)nc(N[C@@H]3CNC[C@H]3C(C)(C)O)c2cc1OC
# Method in brief: as §1
# gefitinib = compound: COc1cc2ncnc(Nc3ccc(F)c(Cl)c3)c2cc1OCCCN1CCOCC1 [gefitinib]
# Method in brief: as §1
# lapatinib = compound: CS(=O)(=O)CCNCc1ccc(-c2ccc3ncnc(Nc4ccc(OCc5cccc(F)c5)c(Cl)c4)c3c2)o1 [lapatinib]
# Method in brief: as §1
# pictilisib = compound: CS(=O)(=O)N1CCN(Cc2cc3nc(-c4cccc5[nH]ncc45)nc(N4CCOCC4)c3s2)CC1 [pictilisib]
# Method in brief: as §1
# crizotinib = compound: C[C@@H](Oc1cc(-c2cnn(C3CCNCC3)c2)cnc1N)c1c(Cl)ccc(F)c1Cl [crizotinib]
# Method in brief: as §1
# [5] = compound: C[C@H](C1=CC=C(C=C1)C(=O)NC2=C3C=CNC3=NC=C2)N
# Method in brief: as §1
# duvelisib = compound: C[C@H](Nc1ncnc2nc[nH]c12)c1cc2cccc(Cl)c2c(=O)n1-c1ccccc1 [duvelisib]
# Method in brief: as §1
# gandotinib = compound: Cc1cc(Nc2cc(CN3CCOCC3)c3nc(C)c(Cc4ccc(Cl)cc4F)n3n2)n[nH]1 [gandotinib]
# Method in brief: as §1
# tozasertib = compound: Cc1cc(Nc2cc(N3CCN(C)CC3)nc(Sc3ccc(NC(=O)C4CC4)cc3)n2)n[nH]1 [tozasertib]
# Method in brief: as §1
# doramapimod = compound: Cc1ccc(-n2nc(C(C)(C)C)cc2NC(=O)Nc2ccc(OCCN3CCOCC3)c3ccccc23)cc1 [doramapimod]
# Method in brief: as §1
# bafetinib = compound: Cc1ccc(NC(=O)c2ccc(CN3CC[C@H](N(C)C)C3)c(C(F)(F)F)c2)cc1Nc1nccc(-c2cncnc2)n1 [bafetinib]
# Method in brief: as §1
# [6] = compound: Cc1cccc(CC(=O)N2CCc3c2ccc(-c2cn(C)c4ncnc(N)c24)c3F)n1
# Method in brief: as §1
Target,log2 fold change (alvocidib),log2 fold change (Tubastatin A),log2 fold change [1],log2 fold change (defactinib),log2 fold change [2],log2 fold change (encorafenib),log2 fold change [3],log2 fold change (alisertib),log2 fold change [4],log2 fold change (gefitinib),log2 fold change (lapatinib),log2 fold change (pictilisib),log2 fold change (crizotinib),log2 fold change [5],log2 fold change (duvelisib),log2 fold change (gandotinib),log2 fold change (tozasertib),log2 fold change (doramapimod),log2 fold change (bafetinib),log2 fold change [6]
NCKAP1L (UniProt P55160),inactive: -0.033,inactive: -0.043,inactive: 0.198,inactive: 0.009,inactive: 0.063,inactive: 0.058,inactive: -0.223,inactive: 0.022,inactive: -0.025,inactive: -0.059,inactive: 0,inactive: 0,inactive: -0.061,inactive: -0.002,inactive: 0.02,inactive: 0.025,inactive: 0.018,inactive: -0.011,inactive: -0.324,inactive: 0.017
NAT10 (UniProt Q9H0A0),inactive: 0.003,inactive: -0.033,inactive: -0.015,inactive: -0.027,inactive: 0.016,inactive: 0.012,inactive: 0.031,inactive: 0.032,inactive: -0.007,inactive: -0.017,inactive: -0.018,inactive: -0.049,inactive: -0.054,inactive: 0.026,inactive: 0.005,inactive: -0.059,inactive: 0.007,inactive: -0.004,inactive: 0.018,inactive: 0.037
NAA15 (UniProt Q9BXJ9),inactive: 0.024,inactive: -0.007,inactive: -0.009,inactive: -0.008,inactive: -0.033,inactive: -0.011,inactive: 0.073,inactive: 0.014,inactive: -0.013,inactive: 0.002,inactive: -0.005,inactive: 0.003,inactive: 0.019,inactive: 0.04,inactive: -0.006,inactive: -0.028,inactive: 0.014,inactive: -0.011,inactive: 0.029,inactive: -0.009
NAP1L1 (UniProt P55209),inactive: 0.003,inactive: 0.035,inactive: -0.013,inactive: 0.004,inactive: 0.018,inactive: 0.008,inactive: 0.012,inactive: 0.008,inactive: -0.097,inactive: 0.038,inactive: 0.099,inactive: 0.087,inactive: -0.008,inactive: 0.159,inactive: 0.001,inactive: -0.041,inactive: -0.012,inactive: -0.001,inactive: 0.015,inactive: -0.006
N4BP2 (UniProt Q86UW6),inactive: 0.063,inactive: -0.17,inactive: 0.052,inactive: 0.021,inactive: -0.004,inactive: 0.06,inactive: 0.003,inactive: 0.016,inactive: 0,inactive: -0.005,inactive: 0.003,inactive: 0.054,inactive: 0.002,active: -0.236,inactive: 0.028,inactive: 0.014,inactive: -0.032,inactive: -0.015,inactive: -0.038,inactive: 0.149
N4BP1 (UniProt O75113),inactive: 0.011,inactive: -0.041,inactive: -0.002,inactive: 0.079,inactive: -0.045,inactive: 0.012,inactive: -0.052,inactive: -0.043,inactive: 0.076,inactive: 0.041,inactive: -0.022,inactive: -0.053,inactive: -0.037,inactive: 0.029,inactive: -0.008,inactive: -0.064,inactive: 0.004,inactive: -0.009,inactive: 0.042,inactive: -0.04
NAXD (UniProt Q8IW45),inactive: -0.047,inactive: 0.095,inactive: 0.017,inactive: 0.082,inactive: 0.018,inactive: 0.008,inactive: -0.058,inactive: -0.051,inactive: -0.045,inactive: -0.048,inactive: 0.002,inactive: -0.023,inactive: 0.009,inactive: -0.017,inactive: 0.009,inactive: 0.1,inactive: -0.008,inactive: -0.006,inactive: 0,inactive: 0.132
MYCBP2 (UniProt O75592),inactive: -0.046,inactive: -0.098,inactive: 0.024,inactive: 0.019,inactive: 0.003,inactive: 0.055,inactive: -0.015,inactive: 0.007,inactive: 0.032,inactive: -0.004,inactive: -0.042,inactive: -0.026,inactive: -0.07,inactive: -0.028,inactive: 0.023,inactive: 0.054,inactive: 0.023,inactive: 0.016,inactive: -0.004,inactive: 0.114
MYL6B (UniProt P14649),inactive: -0.006,inactive: 0.003,inactive: 0.01,inactive: 0.037,inactive: -0.008,inactive: -0.003,inactive: -0.034,inactive: -0.027,inactive: -0.003,inactive: 0.001,inactive: -0.003,inactive: -0.04,inactive: 0.051,inactive: 0.033,inactive: 0.021,inactive: 0.02,inactive: 0.048,inactive: -0.029,inactive: 0.008,inactive: -0.04
MYL12B (UniProt O14950),inactive: 0.012,inactive: -0.006,inactive: 0.002,inactive: 0.003,inactive: 0.025,inactive: -0.002,inactive: -0.042,inactive: -0.019,inactive: -0.005,inactive: -0.009,inactive: 0.006,inactive: -0.016,inactive: -0.014,inactive: 0.141,inactive: 0,inactive: -0.024,inactive: -0.008,inactive: 0.007,inactive: 0.032,inactive: -0.038
NAA38 isoform 2 (UniProt Q9BRA0),inactive: -0.143,inactive: -0.005,inactive: 0.01,inactive: 0.013,inactive: 0.03,inactive: -0.022,inactive: 0.001,inactive: 0.05,inactive: 0.022,inactive: -0.017,inactive: -0.028,inactive: -0.018,inactive: 0.001,active: -0.382,inactive: -0.016,inactive: 0.202,inactive: 0.062,inactive: -0.088,inactive: -0.041,active: 0.244
NCOA4 isoform 4 (UniProt Q13772),inactive: -0.059,inactive: -0.136,inactive: -0.04,inactive: 0.073,inactive: 0.034,inactive: 0.046,inactive: -0.009,inactive: 0.083,inactive: -0.067,inactive: 0.051,inactive: 0.005,inactive: -0.091,inactive: -0.004,inactive: 0.016,inactive: 0.018,inactive: -0.082,inactive: 0.059,inactive: 0.015,inactive: -0.239,inactive: 0.006
MUL1 (UniProt Q969V5),inactive: -0.008,inactive: 0.073,inactive: -0.037,inactive: 0.027,inactive: -0.001,inactive: 0.008,inactive: -0.014,inactive: -0.012,inactive: -0.005,inactive: 0.024,inactive: 0.013,inactive: -0.065,inactive: -0.005,inactive: 0.16,inactive: 0.035,inactive: -0.028,inactive: 0.013,inactive: 0.042,inactive: -0.008,inactive: 0.021
MYH14 isoform 2 (UniProt Q7Z406),inactive: -0.006,inactive: 0,inactive: -0.043,inactive: 0.01,inactive: 0.016,inactive: -0.027,inactive: 0.025,inactive: 0.007,inactive: 0.034,inactive: 0.015,inactive: -0.018,inactive: 0.018,inactive: -0.022,inactive: -0.018,inactive: 0.009,inactive: -0.003,inactive: -0.041,inactive: 0.025,inactive: 0.033,inactive: 0.04
NCAPH (UniProt Q15003),inactive: 0.007,inactive: -0.089,inactive: 0.008,inactive: 0.015,inactive: 0.023,inactive: 0.013,inactive: 0.063,inactive: 0.015,inactive: 0.018,inactive: 0.006,inactive: -0.012,inactive: 0.005,inactive: -0.019,inactive: -0.015,inactive: 0.046,inactive: -0.101,inactive: 0,inactive: 0.036,inactive: -0.013,inactive: 0.028
NABP2 (UniProt Q9BQ15),inactive: 0.003,inactive: 0.004,inactive: 0.036,inactive: -0.065,inactive: -0.11,inactive: -0.022,inactive: -0.093,inactive: 0.02,inactive: 0.004,inactive: -0.017,inactive: -0.005,inactive: 0.17,inactive: -0.032,inactive: 0.026,inactive: 0.013,inactive: 0.027,inactive: 0.053,inactive: -0.076,inactive: -0.131,inactive: -0.03

# Part of the list above, with bars between the fields.
Target | log2 fold change (alvocidib) | log2 fold change (Tubastatin A) | log2 fold change [1] | log2 fold change (defactinib) | log2 fold change [2] | log2 fold change (encorafenib) | log2 fold change [3] | log2 fold change (alisertib) | log2 fold change [4] | log2 fold change (gefitinib) | log2 fold change (lapatinib) | log2 fold change (pictilisib) | log2 fold change (crizotinib) | log2 fold change [5] | log2 fold change (duvelisib) | log2 fold change (gandotinib) | log2 fold change (tozasertib) | log2 fold change (doramapimod) | log2 fold change (bafetinib) | log2 fold change [6]
NAT10 (UniProt Q9H0A0) | inactive: 0.003 | inactive: -0.033 | inactive: -0.015 | inactive: -0.027 | inactive: 0.016 | inactive: 0.012 | inactive: 0.031 | inactive: 0.032 | inactive: -0.007 | inactive: -0.017 | inactive: -0.018 | inactive: -0.049 | inactive: -0.054 | inactive: 0.026 | inactive: 0.005 | inactive: -0.059 | inactive: 0.007 | inactive: -0.004 | inactive: 0.018 | inactive: 0.037
NAP1L1 (UniProt P55209) | inactive: 0.003 | inactive: 0.035 | inactive: -0.013 | inactive: 0.004 | inactive: 0.018 | inactive: 0.008 | inactive: 0.012 | inactive: 0.008 | inactive: -0.097 | inactive: 0.038 | inactive: 0.099 | inactive: 0.087 | inactive: -0.008 | inactive: 0.159 | inactive: 0.001 | inactive: -0.041 | inactive: -0.012 | inactive: -0.001 | inactive: 0.015 | inactive: -0.006
N4BP2 (UniProt Q86UW6) | inactive: 0.063 | inactive: -0.17 | inactive: 0.052 | inactive: 0.021 | inactive: -0.004 | inactive: 0.06 | inactive: 0.003 | inactive: 0.016 | inactive: 0 | inactive: -0.005 | inactive: 0.003 | inactive: 0.054 | inactive: 0.002 | active: -0.236 | inactive: 0.028 | inactive: 0.014 | inactive: -0.032 | inactive: -0.015 | inactive: -0.038 | inactive: 0.149
NAA38 isoform 2 (UniProt Q9BRA0) | inactive: -0.143 | inactive: -0.005 | inactive: 0.01 | inactive: 0.013 | inactive: 0.03 | inactive: -0.022 | inactive: 0.001 | inactive: 0.05 | inactive: 0.022 | inactive: -0.017 | inactive: -0.028 | inactive: -0.018 | inactive: 0.001 | active: -0.382 | inactive: -0.016 | inactive: 0.202 | inactive: 0.062 | inactive: -0.088 | inactive: -0.041 | active: 0.244
